Paper PMC5713249, “PeaTAR1B: Characterization of a Second Type 1 Tyramine Receptor of the American Cockroach, Periplaneta americana” (International Journal of Molecular Sciences, 2017)

Molecular target: T1, PeaTAR1B (PeaTAR1B-HA) (Periplaneta americana, UniProt A0A239QQ38)
T1 construct: stably expressed in HEK 293 flpTM cells
T1 sequence (A0A239QQ38 1-481): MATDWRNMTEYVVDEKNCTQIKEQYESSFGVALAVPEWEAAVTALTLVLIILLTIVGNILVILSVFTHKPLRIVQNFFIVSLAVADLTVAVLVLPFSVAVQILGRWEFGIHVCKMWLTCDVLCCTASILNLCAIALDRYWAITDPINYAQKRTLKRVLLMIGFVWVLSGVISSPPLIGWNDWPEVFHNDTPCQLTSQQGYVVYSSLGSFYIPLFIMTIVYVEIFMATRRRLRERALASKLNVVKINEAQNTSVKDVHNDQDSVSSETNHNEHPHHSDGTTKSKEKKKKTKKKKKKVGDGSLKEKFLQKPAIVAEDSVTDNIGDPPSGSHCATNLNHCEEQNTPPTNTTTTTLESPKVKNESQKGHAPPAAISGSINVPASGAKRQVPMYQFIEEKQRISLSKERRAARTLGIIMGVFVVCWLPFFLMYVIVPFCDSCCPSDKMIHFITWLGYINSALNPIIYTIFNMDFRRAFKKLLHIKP
Test: block of tyramine-induced attenuation of NKH 477-stimulated cAMP, CNG channel / Fluo-4 fluorescence in HEK […] flpTM cells
Type: cell-based

CN1CCN2c3ccccc3Cc3ccccc3C2C1 (stereo not shown) [mianserin]
IC50: 868 nM
